# Data taken from publication PMC4942636.
# T1: Myc-BirA*-Txnip C247S (human) (UniProt Q9H3M7)
# T1 sequence: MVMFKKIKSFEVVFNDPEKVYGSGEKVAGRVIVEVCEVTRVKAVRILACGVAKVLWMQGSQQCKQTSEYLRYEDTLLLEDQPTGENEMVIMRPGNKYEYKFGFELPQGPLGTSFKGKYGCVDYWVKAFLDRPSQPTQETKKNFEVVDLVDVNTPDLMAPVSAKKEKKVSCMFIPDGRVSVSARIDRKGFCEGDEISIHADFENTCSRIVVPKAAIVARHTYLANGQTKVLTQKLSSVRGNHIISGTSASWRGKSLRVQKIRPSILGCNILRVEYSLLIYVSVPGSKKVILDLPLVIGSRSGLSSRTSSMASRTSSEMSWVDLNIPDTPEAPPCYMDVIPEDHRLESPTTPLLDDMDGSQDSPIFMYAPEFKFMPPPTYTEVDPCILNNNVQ
# B1: Heat shock 70 kDa protein 13 (protein, UniProt P48723 23-471)
# chain: QQYLPLPTPKVIGIDLGTTYCSVGVFFPGTGKVKVIPDENGHISIPSMVSFTDNDVYVGYESVELADSNPQNTIYDAKRFIGKIFTAEELEAEIGRYPFKVLNKNGMVEFSVTSNETITVSPEYVGSRLLLKLKEMAEAYLGMPVANAVISVPAEFDLKQRNSTIEAANLAGLKILRVINEPTAAAMAYGLHKADVFHVLVIDLGGGTLDVSLLNKQGGMFLTRAMSGNNKLGGQDFNQRLLQYLYKQIYQTYGFVPSRKEEIHRLRQAVEMVKLNLTLHQSAQLSVLLTVEEQDRKEPHSSDTELPKDKLSSADDHRVNSGFGRGLSDKKSGESQVLFETEISRKLFDTLNEDLFQKILVPIQQVLKEGHLEKTEIDEVVLVGGSTRIPRIRQVIQEFFGKDPNTSVDPDLAVVTGVAIQAGIDGGSWPLQVSALEIPNKHLQKTNFN
# B2: Activity-dependent neuroprotector homeobox protein (protein, UniProt Q9H2P0 1-1102)
# chain: MFQLPVNNLGSLRKARKTVKKILSDIGLEYCKEHIEDFKQFEPNDFYLKNTTWEDVGLWDPSLTKNQDYRTKPFCCSACPFSSKFFSAYKSHFRNVHSEDFENRILLNCPYCTFNADKKTLETHIKIFHAPNASAPSSSLSTFKDKNKNDGLKPKQADSVEQAVYYCKKCTYRDPLYEIVRKHIYREHFQHVAAPYIAKAGEKSLNGAVPLGSNAREESSIHCKRCLFMPKSYEALVQHVIEDHERIGYQVTAMIGHTNVVVPRSKPLMLIAPKPQDKKSMGLPPRIGSLASGNVRSLPSQQMVNRLSIPKPNLNSTGVNMMSSVHLQQNNYGVKSVGQGYSVGQSMRLGLGGNAPVSIPQQSQSVKQLLPSGNGRSYGLGSEQRSQAPARYSLQSANASSLSSGQLKSPSLSQSQASRVLGQSSSKPAAAATGPPPGNTSSTQKWKICTICNELFPENVYSVHFEKEHKAEKVPAVANYIMKIHNFTSKCLYCNRYLPTDTLLNHMLIHGLSCPYCRSTFNDVEKMAAHMRMVHIDEEMGPKTDSTLSFDLTLQQGSHTNIHLLVTTYNLRDAPAESVAYHAQNNPPVPPKPQPKVQEKADIPVKSSPQAAVPYKKDVGKTLCPLCFSILKGPISDALAHHLRERHQVIQTVHPVEKKLTYKCIHCLGVYTSNMTASTITLHLVHCRGVGKTQNGQDKTNAPSRLNQSPSLAPVKRTYEQMEFPLLKKRKLDDDSDSPSFFEEKPEEPVVLALDPKGHEDDSYEARKSFLTKYFNKQPYPTRREIEKLAASLWLWKSDIASHFSNKRKKCVRDCEKYKPGVLLGFNMKELNKVKHEMDFDAEWLFENHDEKDSRVNASKTADKKLNLGKEDDSSSDSFENLEEESNESGSPFDPVFEVEPKISNDNPEEHVLKVIPEDASESEEKLDQKEDGSKYETIHLTEEPTKLMHNASDSEVDQDDVVEWKDGASPSESGPGSQQVSDFEDNTCEMKPGTWSDESSQSEDARSSKPAAKKKATMQGDREQLKWKNSSYGKVEGFWSKDQSQWKNASENDERLSNPQIEWQNSTIDSEDGEQFDNMTDGVAEPMHGSLAGVKLSSQQA
# B3: Thioredoxin-like protein 1 (protein, UniProt O43396 1-289)
# chain: MVGVKPVGSDPDFQPELSGAGSRLAVVKFTMRGCGPCLRIAPAFSSMSNKYPQAVFLEVDVHQCQGTAATNNISATPTFLFFRNKVRIDQYQGADAVGLEEKIKQHLENDPGSNEDTDIPKGYMDLMPFINKAGCECLNESDEHGFDNCLRKDTTFLESDCDEQLLITVAFNQPVKLYSMKFQGPDNGQGPKYVKIFINLPRSMDFEEAERSEPTQALELTEDDIKEDGIVPLRYVKFQNVNSVTIFVQSNQGEEETTRISYFTFIGTPVQATNMNDFKRVVGKKGESH
# B4: TOX high mobility group box family member 4 (protein, UniProt O94842 1-621)
# chain: MEFPGGNDNYLTITGPSHPFLSGAETFHTPSLGDEEFEIPPISLDSDPSLAVSDVVGHFDDLADPSSSQDGSFSAQYGVQTLDMPVGMTHGLMEQGGGLLSGGLTMDLDHSIGTQYSANPPVTIDVPMTDMTSGLMGHSQLTTIDQSELSSQLGLSLGGGTILPPAQSPEDRLSTTPSPTSSLHEDGVEDFRRQLPSQKTVVVEAGKKQKAPKKRKKKDPNEPQKPVSAYALFFRDTQAAIKGQNPNATFGEVSKIVASMWDSLGEEQKQVYKRKTEAAKKEYLKALAAYKDNQECQATVETVELDPAPPSQTPSPPPMATVDPASPAPASIEPPALSPSIVVNSTLSSYVANQASSGAGGQPNITKLIITKQMLPSSITMSQGGMVTVIPATVVTSRGLQLGQTSTATIQPSQQAQIVTRSVLQAAAAAAAAASMQLPPPRLQPPPLQQMPQPPTQQQVTILQQPPPLQAMQQPPPQKVRINLQQQPPPLQIKSVPLPTLKMQTTLVPPTVESSPERPMNNSPEAHTVEAPSPETICEMITDVVPEVESPSQMDVELVSGSPVALSPQPRCVRSGCENPPIVSKDWDNEYCSNECVVKHCRDVFLAWVASRNSNTVVFVK
# B5: Nucleolar protein 58 (protein, UniProt Q9Y2X3 1-529)
# chain: MLVLFETSVGYAIFKVLNEKKLQEVDSLWKEFETPEKANKIVKLKHFEKFQDTAEALAAFTALMEGKINKQLKKVLKKIVKEAHEPLAVADAKLGGVIKEKLNLSCIHSPVVNELMRGIRSQMDGLIPGVEPREMAAMCLGLAHSLSRYRLKFSADKVDTMIVQAISLLDDLDKELNNYIMRCREWYGWHFPELGKIISDNLTYCKCLQKVGDRKNYASAKLSELLPEEVEAEVKAAAEISMGTEVSEEDICNILHLCTQVIEISEYRTQLYEYLQNRMMAIAPNVTVMVGELVGARLIAHAGSLLNLAKHAASTVQILGAEKALFRALKSRRDTPKYGLIYHASLVGQTSPKHKGKISRMLAAKTVLAIRYDAFGEDSSSAMGVENRAKLEARLRTLEDRGIRKISGTGKALAKTEKYEHKSEVKTYDPSGDSTLPTCSKKRKIEQVDKEDEITEKKAKKAKIKVKVEEEEEEKVAEEEETSVKKKKKRGKKKHIKEEPLSEEEPCTSTAIASPEKKKKKKKKRENED
# B6: U4/U6.U5 tri-snRNP-associated protein 1 (protein, UniProt O43290 1-800)
# chain: MGSSKKHRGEKEAAGTTAAAGTGGATEQPPRHREHKKHKHRSGGSGGSGGERRKRSRERGGERGSGRRGAEAEARSSTHGRERSQAEPSERRVKREKRDDGYEAAASSKTSSGDASSLSIEETNKLRAKLGLKPLEVNAIKKEAGTKEEPVTADVINPMALRQREELREKLAAAKEKRLLNQKLGKIKTLGEDDPWLDDTAAWIERSRQLQKEKDLAEKRAKLLEEMDQEFGVSTLVEEEFGQRRQDLYSARDLQGLTVEHAIDSFREGETMILTLKDKGVLQEEEDVLVNVNLVDKERAEKNVELRKKKPDYLPYAEDESVDDLAQQKPRSILSKYDEELEGERPHSFRLEQGGTADGLRERELEEIRAKLRLQAQSLSTVGPRLASEYLTPEEMVTFKKTKRRVKKIRKKEKEVVVRADDLLPLGDQTQDGDFGSRLRGRGRRRVSEVEEEKEPVPQPLPSDDTRVENMDISDEEEGGAPPPGSPQVLEEDEAELELQKQLEKGRRLRQLQQLQQLRDSGEKVVEIVKKLESRQRGWEEDEDPERKGAIVFNATSEFCRTLGEIPTYGLAGNREEQEELMDFERDEERSANGGSESDGEENIGWSTVNLDEEKQQQDFSASSTTILDEEPIVNRGLAAALLLCQNKGLLETTVQKVARVKAPNKSLPSAVYCIEDKMAIDDKYSRREEYRGFTQDFKEKDGYKPDVKIEYVDETGRKLTPKEAFRQLSHRFHGKGSGKMKTERRMKKLDEEALLKKMSSSDTPLGTVALLQEKQKAQKTPYIVLSGSGKSMNANTITK
# B7: E2 ubiquitin-conjugating enzyme (protein, UniProt Q9C0C9 1-1292)
# chain: MADPAAPTPAAPAPAQAPAPAPEAVPAPAAAPVPAPAPASDSASGPSSDSGPEAGSQRLLFSHDLVSGRYRGSVHFGLVRLIHGEDSDSEGEEEGRGSSGCSEAGGAGHEEGRASPLRRGYVRVQWYPEGVKQHVKETKLKLEDRSVVPRDVVRHMRSTDSQCGTVIDVNIDCAVKLIGTNCIIYPVNSKDLQHIWPFMYGDYIAYDCWLGKVYDLKNQIILKLSNGARCSMNTEDGAKLYDVCPHVSDSGLFFDDSYGFYPGQVLIGPAKIFSSVQWLSGVKPVLSTKSKFRVVVEEVQVVELKVTWITKSFCPGGTDSVSPPPSVITQENLGRVKRLGCFDHAQRQLGERCLYVFPAKVEPAKIAWECPEKNCAQGEGSMAKKVKRLLKKQVVRIMSCSPDTQCSRDHSMEDPDKKGESKTKSEAESASPEETPDGSASPVEMQDEGAEEPHEAGEQLPPFLLKEGRDDRLHSAEQDADDEAADDTDDTSSVTSSASSTTSSQSGSGTSRKKSIPLSIKNLKRKHKRKKNKITRDFKPGDRVAVEVVTTMTSADVMWQDGSVECNIRSNDLFPVHHLDNNEFCPGDFVVDKRVQSCPDPAVYGVVQSGDHIGRTCMVKWFKLRPSGDDVELIGEEEDVSVYDIADHPDFRFRTTDIVIRIGNTEDGAPHKEDEPSVGQVARVDVSSKVEVVWADNSKTIILPQHLYNIESEIEESDYDSVEGSTSGASSDEWEDDSDSWETDNGLVEDEHPKIEEPPIPPLEQPVAPEDKGVVISEEAATAAVQGAVAMAAPMAGLMEKAGKDGPPKSFRELKEAIKILESLKNMTVEQLLTGSPTSPTVEPEKPTREKKFLDDIKKLQENLKKTLDNVAIVEEEKMEAVPDVERKEDKPEGQSPVKAEWPSETPVLCQQCGGKPGVTFTSAKGEVFSVLEFAPSNHSFKKIEFQPPEAKKFFSTVRKEMALLATSLPEGIMVKTFEDRMDLFSALIKGPTRTPYEDGLYLFDIQLPNIYPAVPPHFCYLSQCSGRLNPNLYDNGKVCVSLLGTWIGKGTERWTSKSSLLQVLISIQGLILVNEPYYNEAGFDSDRGLQEGYENSRCYNEMALIRVVQSMTQLVRRPPEVFEQEIRQHFSTGGWRLVNRIESWLETHALLEKAQALPNGVPKASSSPEPPAVAELSDSGQQEPEDGGPAPGEASQGSDSEGGAQGLASASRDHTDQTSETAPDASVPPSVKPKKRRKSYRSFLPEKSGYPDIGFPLFPLSKGFIKSIRGVLTQFRAALLEAGMPECTEDK
# Target: T1, Myc-BirA*-Txnip C247S (human)
# Assay: proximity labelling; BioID: Myc-BirA*-Txnip or its C247S mutant stably expressed in HEK293, DMEM with 25 mM glucose and 50 uM biotin for 24 hrs; stringent lysis (0.4% SDS, 500 mM NaCl), biotinylated proteins captured on streptavidin Dynabeads, on-bead trypsin digestion, 1D LC-MS/MS; hits in at least 2 of 3 trials, parental HEK293 as control; also the high glucose arm of cells acclimated to low glucose
row,Binder,binding
1,B1,no binding

# Target: Myc-BirA*-Txnip (human) (UniProt Q9H3M7)
# Assay: as above
row,Binder,binding
1,B2,binds
2,B3,binds
3,B4,binds
4,B1,binds
5,B5,binds
6,B6,binds
7,B7,binds

# Results are given in words; binding and its absence hold for the method and conditions named. In cells and extracts the contact can be indirect. Here binding means that the protein was enriched with, or labelled near, the bait; the list need not be complete. For some assays here: No binding means not detected with the bait. For some assays here: Tags and fused reporters may be left off the sequences shown.
